Results deposited as PubChem BioAssay AID1259254 (NCATS, 2017)
Purpose: 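Gene knock-downs that lead to re-replication, shown by excess G2 DNA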 (primary screen). System: human HCT116 colorectal cancer cells. Reagents: single siRNA against human genes. Time to read-out: 3 days. Detection: 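Imaged Hoechst DNA stain sorts each cell into a cycle phase by DNA amount; per plate, G2 fraction set to 0% for non-targeting and 100% for GMNN siRNA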. Direction: G2 robust z-score: higher = more G2 cells, more excess DNA replication. Rule for the call: 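An siRNA counts as active if its G2 robust z-score lies at least 5 MADs above the screen median; here such calls match roughly 38% of GMNN control or more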.
This is one part, drawn at random, of about 59,000 deposited reagents. Over the whole deposit, about 1,550 (2.6%) are marked active. 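G2 share is only a proxy for re-replication; each gene was hit by three separate siRNAs, and active genes were retested.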 Not all columns of the deposit are shown. Reagent sequences are not shown. The record does not give: the amount of reagent.

G2 robust z-score, by target and reagent
MRE11: SID160777448 -0.692 inactive; SID160777450 2.7 inactive; SID160777451 1.01 inactive
PSAT1: SID160739412 -1.54 inactive; SID160739413 -0.0193 inactive; SID160739414 1.16 inactive
TASOR: SID160735893 0.158 inactive; SID160735895 -0.816 inactive; SID160735896 1.22 inactive
SNAP29: SID160721986 -0.569 inactive; SID160721988 3.21 inactive; SID160721989 2.8 inactive
LRRC38: SID160756529 0.08 inactive; SID160756530 0.361 inactive; SID160756531 -0.182 inactive

A stretch taken from the entries so far:
G2 robust z-score, by target and reagent
MRE11: SID160777451 1.01 inactive
PSAT1: SID160739412 -1.54 inactive; SID160739413 -0.0193 inactive

The listing continues:
G2 robust z-score, by target and reagent
ZDHHC14: SID160749185 -0.828 inactive; SID160749186 -0.947 inactive; SID160749187 2.69 inactive
KLHDC2: SID160736621 9.25 active; SID160736623 -0.118 inactive; SID160736624 -0.41 inactive
WBP11P3: SID160734251 -1.31 inactive; SID160771267 0.447 inactive; SID160771268 1.27 inactive
UBE2S: SID160738752 1.69 inactive; SID160738753 1.42 inactive; SID160738754 0.756 inactive
CETN1: SID160741957 -0.704 inactive; SID160741965 -0.385 inactive; SID160741975 -0.415 inactive
